# Where “and” joins values, the source holds several entries; their conditions need not be identical. Equal values may be shown once. The list shows a part of the results. These are further read-outs of the screen, such as a control signal, another cell line or another target. No call is given for them. The list favours compounds with an active or inconclusive main result. Words in brackets tell the shape of the fitted curve; partial curves, single points and poor fits give uncertain potencies.
# Test: IkB Signaling
# Details: ABC-DLBCL IkBa-CBG/CBR dual luciferase ratio (green luciferase fused to IkBa over red control in OCI-Ly3 lymphoma cells), 4 h
# How it was run: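 Curves were fitted separately to fusion (green), unfused (red) and ratio luminescence, then classed by r2, magnitude and activity. Cells: OCI-Ly3, 4 h compound plus doxycycline at 37C; 10 uM MG-132 defined full response.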
# [1] = measured here: control luc red channel unless noted
# [2] = measured here: IkB-luc green channel
# [3] = measured here: control luc red channel
compound,measurement,setting,value
CCOCCCNC(=O)C(c1ccc(Cl)cc1)N(Cc1ccc2c(c1)OCO2)C(=O)c1ccccc1O (centres undefined),AC50,[1],"12.6 µM [falling, partial curve]"
O=C(NCc1ccc2c(c1)OCO2)C1CCN(S(=O)(=O)c2ccc(Br)s2)CC1,AC50,[1],"12.6 µM [falling, partial curve]"
COc1ccc(-c2nc(S(=O)(=O)c3ccccc3)c(N3CCCCC3)o2)cc1,AC50,[1],"20 µM [falling, partial curve]"
CCN(Cc1nc(-c2ccc(OC)cc2)oc1C)S(=O)(=O)c1ccc(Cl)cc1,AC50,[1],"25.1 µM [falling, single point]"
Cc1ccc(C)c(OCCCn2c(-c3ccc(Cl)cc3)nc3ccccc3c2=O)c1,AC50,[1],"15.8 µM [falling, partial curve]"
CC1(C)CC(=O)C(C=NCCN2CCOCC2)=C(O)C1,AC50,[1],"31.6 µM [rising, single point]"
C=CCn1cc(C(=O)NCc2ccco2)c(=O)c2cc(S(=O)(=O)N3CCCCCC3)ccc21,AC50,[1],"12.6 µM [falling, partial curve]"
Cc1ccc(Cl)cc1N1CCN(C(=O)c2cn(C)c3ccc(S(=O)(=O)N4CCC(C)CC4)cc3c2=O)CC1,AC50,[1],"1.26 µM [falling, partial curve]"
COc1ccc(NCc2nc3ccccc3n2CCOc2ccc(C)cc2)cc1,AC50,[1],"1.26 µM [falling, full curve]"
O=C(NCC(c1ccc(Cl)cc1)N1CCCCC1)c1ccccc1 (centres undefined),AC50,[1],"20 µM [falling, partial curve]"
CCCOc1ccc(C(=O)N(Cc2cccs2)C2CCS(=O)(=O)C2)cc1 (centres undefined),AC50,[1],"39.8 µM [rising, single point]"
Cc1ccc(NCc2nc3ccccc3n2CCOc2ccccc2C)cc1,AC50,[1],"10 µM [falling, partial curve]"
Nc1c(C(=O)Nc2ccccc2Cl)nnn1Cc1cccc(Cl)c1,AC50,[1],"0.794 µM [falling, full curve]"
CCNc1nc2c(c(=O)n(C)c(=O)n2C)n1CC(O)COc1ccccc1 (centres undefined),AC50,[1],"25.1 µM [falling, partial curve]"
CCOC(=O)C1=C(O)CCn2c1nc1ccccc12,AC50,[1],"10 µM [falling, partial curve]"
O=C(NCc1cccc(Br)c1)c1ccc(-n2cnc3cccnc32)cc1,AC50,[1],"25.1 µM [falling, single point]"
Cc1ccc(-n2ncc3c(N4CCC(C)CC4)ncnc32)cc1C,AC50,[1],"12.6 µM [falling, partial curve]"
Cc1cccc(-c2noc(CNC(=O)c3ccc(C)cc3C)n2)c1,AC50,[1],"31.6 µM [falling, single point]"
CCCCC(=O)Nc1cccc(NC(=O)c2ccc(Br)o2)c1,AC50,[1],"12.6 µM [falling, partial curve]"
CCC1CCCCN1C(=O)CSc1nc(N)c(NC(=O)c2ccco2)c(=O)[nH]1 (centres undefined),AC50,[1],"7.94 µM [falling, partial curve]"
C[n+]1cc2c3c(ccc2c2ccc4cc5c(cc4c21)OCO5)OCO3,AC50,[2],"6.31 µM [falling, full curve]"
same,AC50,[3],"2.51 µM [falling, full curve] and 3.98 µM [falling, full curve]"
CC(C)(C)c1ccc(OCC(=O)NCC2(N3CCOCC3)CCCCC2)cc1,AC50,[1],"15.8 µM [falling, partial curve]"
COc1ccccc1-c1cc2nc(C)c(CCC(=O)NCCc3cccc(C)c3)c(C)n2n1,AC50,[1],"1.26 µM [falling, full curve]"
CCc1cccc(-n2c(=O)c3cccnc3n2CC(=O)NCc2ccc(C)cc2)c1,AC50,[1],"0.1 µM [rising, full curve, poor fit]"
O=C(CCCCCn1c(=O)c2sccc2n(CC(=O)Nc2cc(C(F)(F)F)ccc2Cl)c1=O)NCc1ccccc1Cl,AC50,[1],"0.794 µM [falling, partial curve]"
Cc1ccc(NC(=O)Cn2cnc3onc(-c4ccc(F)cc4)c3c2=O)c(Cl)c1,AC50,[1],"39.8 µM [falling, single point]"
CCN1CCN(Cc2nc3c(c(=O)n(C)c(=O)n3C)n2Cc2ccc(Cl)cc2Cl)CC1,AC50,[2],"3.98 µM [rising, partial curve]"
same,AC50,[3],"7.94 µM [falling, full curve]"
CC(C)C(=O)Nc1cccc(NC(=O)c2cc3ccccc3o2)c1,AC50,[1],"5.01 µM [falling, partial curve]"
CC(=O)Nc1ccc(Nc2ncnc3c2cnn3C)cc1,AC50,[1],"12.6 µM [rising, partial curve]"
COc1ccc(C2(NC(C)=O)CCN(C(=O)CCC(=O)O)CC2)cc1,AC50,[1],"794 nM [rising, partial curve, poor fit] [measured here: IkB-luc green channel]"
Cc1ccc(C)n1-c1nnc(N2CCCC(C(=O)Nc3ccccc3Br)C2)s1 (centres undefined),AC50,[1],"25.1 µM [falling, partial curve]"
CC1CCN(S(=O)(=O)c2ccc3c(c2)N(CC(=O)NCCCN2CCCCC2)C(=O)CS3)CC1,AC50,[1],"7.94 µM [falling, partial curve, poor fit]"
CCOC(=O)CSc1nnc(CNC(=O)Cc2ccccc2)n1-c1ccccc1OC,AC50,[1],"1.26 µM [falling, partial curve]"
Nc1ccc(-c2n[nH]c(=O)c3ccccc23)cc1N,AC50,[1],"10 µM [falling, partial curve]"
CCOc1ccc(S(=O)(=O)NCCc2c(C)[nH]c3c(Cl)cccc23)cc1C,AC50,[1],"31.6 µM [falling, partial curve]"
Cc1ccc(Cl)cc1N1CCN(C(=O)CSc2cc(=O)n(C)c3ccccc23)CC1,AC50,[1],"7.94 µM [falling, partial curve]"
CC(C)c1ccc(OCc2ccc(C(=O)N3CCN(c4ccccn4)CC3)cc2)cc1,AC50,[1],"15.8 µM [falling, partial curve]"
CC1=C(C(=O)Nc2cc(Cl)ccc2C)C(c2sccc2C)n2ncnc2N1 (centres undefined),AC50,[1],"1.58 µM [falling, partial curve]"
COc1ccc(C(=O)Nc2ccc3nc(SCC(=O)N(C)c4ccccc4)sc3c2)cc1,AC50,[1],"2.51 µM [falling, full curve]"
CC(C)(C)c1ccc2c(c1)N(CC(=O)NCCCN1CCN(c3ccccc3F)CC1)C(=O)CO2,AC50,[1],"31.6 µM [falling, partial curve]"
O=C1c2ccccc2C(Nc2ccc(F)c(Cl)c2)N1Cc1ccco1 (centres undefined),AC50,[1],"3.98 µM [falling, partial curve]"
CCOc1ccc(NC(=O)CSc2nnc(CNC(=O)C34CC5CC(CC(C5)C3)C4)n2CC)cc1,AC50,[1],"12.6 µM [falling, partial curve]"
CCOc1ccc2[nH]c(=O)c(CN(Cc3ccco3)Cc3nnnn3Cc3ccccc3)cc2c1,AC50,[1],"25.1 µM [falling, partial curve]"
N#Cc1c(N)nc(SCC(=O)OCc2ccccc2)c(C#N)c1-c1ccco1,AC50,[1],"12.6 µM [falling, partial curve]"
Cc1cccc2cc(CN(CC3CCCO3)C(c3nnnn3Cc3ccco3)C(C)C)c(=O)[nH]c12 (centres undefined),AC50,[2],"31.6 µM [rising, single point]"
same,AC50,[3],"39.8 µM [falling, single point]"
CC(Oc1ccccc1)C(=O)Nc1ccccc1C(=O)OCc1cc(=O)n2nc(C(C)C)sc2n1 (centres undefined),AC50,[1],"15.8 µM [falling, partial curve]"
Cc1c(C(=O)N(C)C)sc2c1c(=O)n(-c1ccc(Cl)c(Cl)c1)c(=O)n2CC(=O)N1CCCCC1C (centres undefined),AC50,[1],"7.94 µM [rising, partial curve, poor fit]"
CCCC12CN3CC(CCC)(CN(C1)C3c1ccc(OC(C)C)cc1)C2=O (centres undefined),AC50,[1],"10 µM [falling, partial curve]"
CSc1nc2c(sc3ccccc32)c(=O)n1Cc1ccc(C)cc1,AC50,[1],"0.0631 µM [falling, full curve, poor fit]"
CCn1c(=O)c(=O)n(CC)c2cc(N3CCCCC3)c(NC(=O)c3ccccc3OC)cc21,AC50,[1],"2 µM [falling, partial curve, poor fit]"
CCOc1ccc(-c2nc(CSCC(=O)NCCc3ccc(OCC)c(OCC)c3)c(C)o2)cc1,AC50,[1],"3.16 µM [falling, partial curve]"
COc1ccccc1-c1c(C)nn2c(N3CCN(c4ccccc4)CC3)cc(C)nc12,AC50,[1],"20 µM [falling, single point]"
O=C(NCCc1ccc(Cl)cc1)C(=O)NCC(c1cccs1)S(=O)(=O)c1cccs1 (centres undefined),AC50,[1],"20 µM [falling, single point]"
Cc1ccc(NC(=O)c2noc3c2CCCCC3)cc1,AC50,[1],"3.16 µM [falling, partial curve]"
COc1ccc(C(=O)Nc2cc(-c3nc4ccccc4s3)ccc2OC)cc1,AC50,[1],"2 µM [rising, partial curve]"
O=C(Nc1ccc2nc(SCC(=O)N3CCOCC3)sc2c1)c1ccc(Br)cc1,AC50,[1],"0.2 µM [falling, full curve, poor fit]"
COC(=O)c1ccc(NC(=O)CCc2c(C)nc3c(c(C)nn3C(C)(C)C)c2C)cc1,AC50,[1],"20 µM [falling, partial curve]"
CCN(C(=O)CSc1nc(-c2ccccc2)no1)c1ccccc1,AC50,[1],"12.6 µM [falling, partial curve]"
O=c1c2ccccc2nnn1CSc1nnc(-c2ccc3c(c2)OCO3)o1,AC50,[1],"25.1 µM [falling, partial curve]"
O=S(=O)(Nc1ccc(-c2nc3ccccc3o2)cc1)c1ccccc1,AC50,[1],"31.6 µM [falling, single point]"
Cc1ccccc1CSc1nc(-c2cccc(F)c2)nc2c1Cc1c(CO)cnc(C)c1O2,AC50,[1],"39.8 µM [falling, single point]"

# Reprinted from above for reference:
compound,measurement,setting,value
CCCCC(=O)Nc1cccc(NC(=O)c2ccc(Br)o2)c1,AC50,[1],"12.6 µM [falling, partial curve]"
CCC1CCCCN1C(=O)CSc1nc(N)c(NC(=O)c2ccco2)c(=O)[nH]1 (centres undefined),AC50,[1],"7.94 µM [falling, partial curve]"
C[n+]1cc2c3c(ccc2c2ccc4cc5c(cc4c21)OCO5)OCO3,AC50,[2],"6.31 µM [falling, full curve]"
same,AC50,[3],"2.51 µM [falling, full curve] and 3.98 µM [falling, full curve]"

# From PubChem BioAssay AID445 (National Center for Advancing Translational Sciences (NCATS), 2006)
